Assay [1] addresses HMGB1 B-box domain (human) (UniProt P09429). The assay is described as follows: dynamic light scattering; as-prepared, unfiltered B-box, 30 μM, 25 mM Tris-HCl pH 6.9, 150 mM NaCl, 25 °C, backscattering mode; the retentate of the 30 kDa filter was also measured (Figure S6); both purified.
The target is the same in assay [2]. Nature of the assay: condition: only after filtration through a 30 kDa cutoff membrane; 16 μM; dynamic light scattering; B-box flow-through of a 30 kDa cutoff filter, 16 μM, 25 mM Tris-HCl pH 6.9, 150 mM NaCl, 25 °C; followed over 6 h; both purified.
Assay [3] shares this target. The assay is described as follows: ultrafiltration (30 kDa cutoff) + UV-vis absorbance at 280 nm; 450 μL of 147 μM B-box in 25 mM Tris-HCl pH 6.9, 150 mM NaCl, spun through a 30 kDa Amicon filter at 4 °C; concentrations of the initial, top and bottom solutions by A280; both purified.

Results are given in words; binding and its absence hold for the method and conditions named. Some binding calls cover weakened binding; strength is not graded here.

B1: HMGB1 B-box domain (domain or fragment, human)
chain: MARIDPNAPKRPPSAFFLFCSEYRPKIKGEHPGLSIGDVAKKLGEMWNNTAADDKQPYEKKAAKLKEKYEKDIAAYRAKGKPDAAKKGVV
notes: initiator methionine followed by the triplet alanine-arginine-isoleucine (ARI), inserted through the forward primer for better expression; HMGB1 (high mobility group box 1), human, B-box domain, cloned from the human HMGB1 cDNA; Numbers count on: the construct (Cys19 = Cys106 of full-length HMGB1; Trp46); By the reverse primer, the XhoI site adds LE between V176 and the SGS-His8 tag; The DLS …
In the case of B1, the binding result in assay [1] is “binds weakly”; in assay [2] it was “no binding”; in assay [3], “binds weakly”.

For the origin of these results see publication PMC12451656, “HMGB1 B‑Box Domain Associates Promote Protein–Polyelectrolyte Interactions” (The Journal of Physical Chemistry. B, 2025).
